{
  "source": "patent US8017374B2",
  "about": "“Processes for decolorization of colored effluents” (priority 2005, dated 2011)",
  "key": {"[1]": {"assay": "Decolorization using exopolymeric substance produced by NIOCC 2a", "parameters": "species or system unidentified marine fungus NIOCC #2a (MTCC 5159)", "conditions": "24 hours; dyes 0.015-0.04%; 10 mg EPS, 60° C., phosphate buffer pH 6", "protocol": "The process of decolorization of effluents using the exoploymeric substance (EPS) produced by the fungus is carried out using separated and freeze dried EPS. A known amount of EPS is incubated with appropriately diluted effluents for a period of 6 to 12 hours. The decolorization is monitored in the supernatant after centrifugation. While using the EPS, about 10 mg of EPS (dry weight) is contacted with 3 ml of effluent having the final concentration of 10%.\nThe exopolymeric substance (EPS) of the fungus NIOCC 2a was prepared as follows: 1 liter of a 12 day old culture filtrate was frozen for 12 to 24 hours and allowed to thaw. The EPS precipitated on thawing and was removed by decantation. Methanol at a final concentration of 70% was added to the supernatant to further precipitate the remaining EPS from the culture supernatant. The precipitated EPS was collected by centrifugation and the pooled precipitate was lyophilized. To 10 mg of this EPS, various dyes and effluents were added at concentrations as given in example 2 and incubated at 60° C. with phosphate buffer at pH 6. […]"}, "NIOCC 2a": {"test_system": "NIOCC 2a", "assay": "Enhancement of laccase production by inducers; laccase activity in culture supernatant (ABTS);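 also: supernatant laccase measured by 2 mM ABTS oxidation in 100 mM glycine-HCl buffer at pH 3, absorbance at 405 nm tracked over time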", "conditions": "Tables 1a-1c; brilliant green day 14; textile effluent B 1%, day 12"}},
  "note": "At least one compound was matched to its structure with a doubt left.",
  "data": [
    {"smiles": "CCN(CC)c1ccc(C(=C2C=CC(=[N+](CC)CC)C=C2)c2ccccc2)cc1", "note": "[Brilliant Green, brilliant green]", "values": [
      {"measurement": "PERCENT DECOLORIZATION", "setting": "[1]", "value": 90, "unit": "%"},
      {"measurement": "comparison of inducers of laccase production, in words", "setting": "NIOCC 2a", "value": "induced maximum laccase production"}
    ]}
  ]
}
